# Experimental data taken from PubChem BioAssay AID588391 (Broad Institute, 2011).
# Protein sequences, listed by entry. Tags and fused reporters are not part of them.
# UniProt P07237, whole entry, looked up: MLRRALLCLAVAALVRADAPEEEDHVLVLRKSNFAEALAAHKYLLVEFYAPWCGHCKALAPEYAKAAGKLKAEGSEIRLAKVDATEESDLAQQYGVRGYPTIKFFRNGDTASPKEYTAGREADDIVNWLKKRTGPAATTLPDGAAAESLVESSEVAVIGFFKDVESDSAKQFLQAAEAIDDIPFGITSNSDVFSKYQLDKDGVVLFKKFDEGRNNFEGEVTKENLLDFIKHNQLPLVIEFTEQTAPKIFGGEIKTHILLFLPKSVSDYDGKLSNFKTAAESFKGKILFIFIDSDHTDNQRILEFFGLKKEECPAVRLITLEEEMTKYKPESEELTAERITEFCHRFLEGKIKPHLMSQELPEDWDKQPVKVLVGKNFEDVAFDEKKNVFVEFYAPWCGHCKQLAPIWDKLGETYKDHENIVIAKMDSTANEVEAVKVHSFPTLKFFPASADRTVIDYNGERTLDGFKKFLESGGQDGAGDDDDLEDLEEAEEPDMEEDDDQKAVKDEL
# Out of some 350,000 compounds screened, about 180 (0.051%) were called active. Inconclusive means that the source gave no clear call. Such entries were picked first, then a sample of the others.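 The calls were made as follows: active = mean inhibition across replicates of 30% or more, whatever share of single replicates reach that level; inconclusive = mean inhibition below 30% while every single replicate reaches 30%; inactive = the rest.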
# Molecular target: Protein disulfide-isomerase (Homo sapiens) (UniProt P07237)
# Test: blockers of PDI-driven insulin aggregation – biochemical, turbidity, single point, plate reader, primary screen (AID 588391);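 also: absorbance from insulin aggregation driven by PDI reduction with DTT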
# Conditions: A650, 90 min, at 10 µM, stronger effect = higher value
row,SMILES,inhibition
1,COc1cc(/C=C2\C(=O)NC(=O)N(CCc3ccc(F)cc3)C2=O)ccc1O,inconclusive: 33.7%
2,CC(=NCCN(C)C)c1c(O)n(Cc2ccccc2)c(=O)[nH]c1=O,inactive: 8.05%
3,CN1CCN(CCOC2c3ccccc3CSc3ccc(Cl)cc32)CC1 (stereo unspecified),active: 31.9%
4,CCn1nc(-c2cccs2)nc2c(=O)n(C)c(=O)nc1-2,inconclusive: 61.2%
5,CC(Cc1ccc(O)cc1)NCC(O)c1ccc(O)c(O)c1 (stereo unspecified),inconclusive: 32.2%
6,Cc1ccc(-n2c(O)c(C=NCCN3CCOCC3)c(=O)[nH]c2=O)cc1,inconclusive: 32.1%
7,CCOC(C(=O)OCCCN(CC)CC)(c1ccccc1)c1ccccc1,inconclusive: 35.5%
8,C[C@H]1CCCC(=O)CCCCCc2cc(O)cc(O)c2C(=O)O1,inconclusive: 30.5%
9,COc1cc2cc(C(=O)N3CC(COS(C)(=O)=O)c4ccc(O)cc43)[nH]c2c(OC)c1OC (stereo unspecified),inconclusive: 35.8%
10,O=P1(c2ccccc2)Nc2ccccc2N1c1ccccc1 (stereo unspecified),inactive: -0.118%
11,COc1cccc2c1C(=O)c1c(O)c3c(c(O)c1C2=O)CC(O)(C(C)=NO)CC3OC1CC(N)C(O)C(C)O1 (stereo unspecified),inconclusive: 32.5%
12,O=C1C(Cl)=CC(=Nc2ccc(O)cc2)C=C1Cl,inconclusive: 41.9%
13,CC1=C(O)C(=O)C=C2C1=CC=C1C2(C)CCC2(C)C3CC(C)(C(=O)O)CCC3(C)CCC12C (stereo unspecified),active: 62.8%
14,O=[N+]([O-])c1cc(F)c(N2CCCCCC2)cc1N1CCNCC1,inconclusive: 45.5%
15,CCN1CC2(COC(=O)c3ccccc3N)CCC(OC)C34C5CC6C(OC)CC(O)(C5C6OC)C(O)(C(OC)C23)C14 (stereo unspecified),inconclusive: 30.2%
16,O=C(O)CC1OCC=C2CN3CCC45C6=CC(=O)C(=O)C([N+](=O)[O-])=C6NC4C1C2CC35 (stereo unspecified),active: 75%
17,Cn1ncnc2c(=O)n(C)c(=O)nc1-2,active: 175%
18,CCCC[C@@H](C)C[C@@H](C)C(=O)N(C)[C@@H](CC(C)C)C(=O)N[C@H](C(=O)N(C)[C@H](C(=O)N1C[C@@H](O)C[C@H]1C(=O)N1C(=O)C=C[C@@H]1C)C(C)C)C(C)OC(C)=O (stereo partly specified),active: 37.2%
19,Cc1nc2c(=O)n(C)c(=O)nc-2n(C)n1,active: 189%
20,O=C1C(=O)c2ccccc2-c2ccccc21,active: 167%
21,CCCCCCn1c(=O)c(C(=O)Nc2cnccn2)c(O)c2ccccc21,inactive: 2.1%

# A different layout for some results above:
row | SMILES | inhibition
16 | O=C(O)CC1OCC=C2CN3CCC45C6=CC(=O)C(=O)C([N+](=O)[O-])=C6NC4C1C2CC35 (stereo unspecified) | active: 75%
17 | Cn1ncnc2c(=O)n(C)c(=O)nc1-2 | active: 175%
